Experimental data taken from patent publication US11557737B2, “Compound, coating composition comprising same, organic light-emitting element using same, and manufacturing method therefor” (LG Chem, Ltd., priority 2018, dated 2023).

Assay: Device evaluation of organic light emitting device with the compound as dopant of the light emitting layer
Details: current density of 10 mA/cm^2; dopant (6%) with host Compound B in light emitting layer

| SMILES | Current Efficiency [cd/A] | Driving voltage [V] | Emission wavelength [nm] | Power efficiency [lm/W] |
| --- | --- | --- | --- | --- |
| C[Si](C)(C)c1ccc(-c2ccc(N(c3ccc4ccc5c(N(c6ccc(-c7ccc([Si](C)(C)C)cc7)cc6)c6cccc7c6oc6ccccc67)ccc6ccc3c4c65)c3cccc4c3oc3ccccc34)cc2)cc1 [Compound D] | 3.48 | 5.74 | 459 | 1.51 |
| C[Si](C)(C)c1ccc(N(c2ccccc2)c2ccc3ccc4c(N(c5ccccc5)c5ccc([Si](C)(C)C)cc5)ccc5ccc2c3c54)cc1 [Compound C] | 3.02 | 6.22 | 465 | 1.94 |
| c1ccc([Si](c2ccccc2)(c2ccccc2)c2ccc(-c3ccc(N(c4ccc(-c5cccc6c5oc5ccccc56)cc4)c4cc5ccc6cccc7ccc(c4)c5c67)cc3)cc2)cc1 [Compound E] | 1.75 | 7.64 | 436 | 0.86 |
| c1ccc([Si](c2ccccc2)(c2ccccc2)c2ccc(-c3ccc(N(c4ccc(-c5ccc6c(c5)oc5ccccc56)cc4)c4cc5ccc6cccc7ccc(c4)c5c67)cc3)cc2)cc1 [Compound F] | 1.46 | 7.59 | 435 | 0.79 |
